From PubChem BioAssay AID651640 (Broad Institute, 2012)
In all, about 350,000 compounds went through this assay and about 6,000 (1.7%) were called active. The inconclusive results got no clear call from the source; some entries with a clear call stand among them for comparison. Rule as the data show it: active = CPE inhibition above about 20% (passing the limit was not always enough); inconclusive = no clear call, values can overlap the other calls; tested in BHK-21 cells. The source holds several records for some structures; these can differ, active in one and inactive in another.

Assay: protection of cells from dengue 2 killing – plate reader, single concentration, primary screen (AID 651640);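 also: 0% = median of neutral control wells and 100% = median of positive control wells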
Details: DENV2-infected cells, cytopathic effect rescue, at 9.99 µM, stronger effect = higher value

| SMILES | CPE inhibition |
| --- | --- |
| C[C@@H]1CN([C@H](C)CO)C(=O)c2ccccc2-c2ccccc2CO[C@H]1CN(C)C(=O)c1cc(Cl)cc(Cl)c1 | active: 28.7% |
| COC(=O)c1sccc1NC(=O)Nc1cc(C)ccc1OC | inconclusive: 35.5% |
| Cc1onc(-c2ccccc2Cl)c1C(=O)N1CCN(c2ncccn2)CC1 | inconclusive: 22.3% |
| Cc1cc(C(=O)NNC(=O)c2ccc(Cl)c(S(N)(=O)=O)c2)c(C)o1 | inactive: 6.38% |
| COc1cccc(S(=O)(=O)Nc2ccc3c(c2)C(=O)N(C)C[C@H](OC)[C@H](C)CN[C@@H](C)CO3)c1 | active: 20.1% |
| COC(=O)C1=C(C)N(Cc2ccccc2)C(=S)N[C@H]1c1ccc(Br)cc1 | inconclusive: 82.5% |
| CCCN1C[C@H](C)[C@H](OC)CN(C)C(=O)c2ccc(NS(=O)(=O)c3ccccc3)cc2OC[C@@H]1C | inactive: -4.69% |
| CCN1CCN(C2=C(NS(=O)(=O)c3ccccc3)C(=O)c3ccccc3C2=O)CC1 | inactive: 0.147% |
| CCCOc1ccc(N2C(=O)CC(N(CCCO)C(=O)CC)C2=O)cc1 (centres undefined) | inconclusive: 33.3% |
| CCS(=O)(=O)Nc1ccc2c(c1)C(=O)N(C)[C@H]1CC[C@H](CC(=O)OC)O[C@H]1CO2 | inconclusive: 103% |
| Cc1cc2c(cc1C)NC(=O)C(C)CN2 (centres undefined) | inconclusive: 52.6% |
| CO[C@H]1CN(C)C(=O)c2ccc(NC(=O)C3CCC3)cc2OC[C@H](C)N(CC2CCCCC2)C[C@@H]1C | inconclusive: 34.6% |
| NC(=O)c1ccc(NC(=O)C2COc3ccccc3O2)cc1 (centres undefined) | inactive: 3.95% |
| COc1ccc(S(=O)(=O)N2CCCCCC2)cc1C(=O)NCCc1ccc(F)cc1 | inconclusive: 49.6% |
| Cc1ccc(S(=O)(=O)N(C)C[C@@H]2OCCCC[C@H](C)Oc3ccc(NC(=O)C4CCCCC4)cc3C(=O)N([C@H](C)CO)C[C@@H]2C)cc1 | active: 24.1% |
| CCCN(C)C[C@H]1Oc2cc(C#Cc3cccnc3)ccc2S(=O)(=O)N([C@H](C)CO)C[C@H]1C | inactive: -7.13% |
| C[C@@H]1CN([C@@H](C)CO)C(=O)Cc2cc(NC(=O)Nc3ccccc3)ccc2O[C@H]1CN(C)S(=O)(=O)c1cccs1 | active: 24.7% |
| C[C@@H]1CN([C@H](C)CO)C(=O)c2cccc(NS(=O)(=O)c3ccc(F)cc3)c2O[C@@H]1CN(C)Cc1ccc(C(F)(F)F)cc1 | inconclusive: 27.2% |
| COc1ccccc1NC(=O)CSc1nnnn1C1CCCCC1 | inconclusive: 26.9% |
| CO[C@H]1CN(C)C(=O)c2cc(NC(=O)C3CC3)ccc2OC[C@@H](C)N(C(=O)c2ccccc2F)C[C@H]1C | inactive: 9.69% |
| O=C(C[C@H]1C[C@@H]2c3cc(NC(=O)C4CCOCC4)ccc3O[C@@H]2[C@H](CO)O1)NCc1cccnc1 | inconclusive: 41.4% |
| C[C@@H]1CCCCO[C@@H](CN(C)S(=O)(=O)c2cn(C)cn2)[C@@H](C)CN([C@H](C)CO)C(=O)c2cc(NC(=O)c3ccccc3)ccc2O1 | inactive: -4.67% |
| C[C@H]1CN([C@@H](C)CO)C(=O)c2cc(-c3ccncc3)cnc2O[C@@H]1CN(C)Cc1ccc(F)cc1 | inactive: -4.34% |

Individual results from above:
Entry for `COC(=O)C1=C(C)N(Cc2ccccc2)C(=S)N[C@H]1c1ccc(Br)cc1` under CPE inhibition: inconclusive: 82.5%
Entry for `C[C@@H]1CCCCO[C@@H](CN(C)S(=O)(=O)c2cn(C)cn2)[C@@H](C)CN([C@H](C)CO)C(=O)c2cc(NC(=O)c3ccccc3)ccc2O1` under CPE inhibition: inactive: -4.67%
Entry for `Cc1ccc(S(=O)(=O)N(C)C[C@@H]2OCCCC[C@H](C)Oc3ccc(NC(=O)C4CCCCC4)cc3C(=O)N([C@H](C)CO)C[C@@H]2C)cc1` under CPE inhibition: active: 24.1%
Entry for `CO[C@H]1CN(C)C(=O)c2ccc(NC(=O)C3CCC3)cc2OC[C@H](C)N(CC2CCCCC2)C[C@@H]1C` under CPE inhibition: inconclusive: 34.6%
Entry for `CCCN1C[C@H](C)[C@H](OC)CN(C)C(=O)c2ccc(NS(=O)(=O)c3ccccc3)cc2OC[C@@H]1C` under CPE inhibition: inactive: -4.69%

(listing goes on)

| SMILES | CPE inhibition |
| --- | --- |
| C[C@@H]1CCCCO[C@H](CN(C)CC2CC2)[C@H](C)CN([C@@H](C)CO)C(=O)c2cc(NS(=O)(=O)c3cccs3)ccc2O1 | active: 41.6% |
| C[C@H](CO)N1C[C@H](C)[C@@H](CN(C)Cc2ccc(-c3ccccc3)cc2)Oc2ccc(NC(=O)C3CC3)cc2C1=O | inconclusive: 37.5% |
| Cc1ccccc1S(=O)(=O)NC(=O)C1(C)CCN1C(=O)CCc1cccs1 (centres undefined) | inconclusive: 29.8% |
| CCCNC(=O)C[C@@H]1C[C@H]2c3cc(NC(=O)c4cccnc4)ccc3O[C@H]2[C@@H](CO)O1 | inconclusive: 20.7% |
| Cc1ccccc1S(=O)(=O)N1CC(=O)N2[C@H](CO)[C@@H](c3ccc(C#CCC(C)C)cc3)[C@H]2C1 | inconclusive: 27.6% |
| CCC1(C)NC(=O)N(CC(=O)N2CCN(c3cccc(Cl)c3)CC2)C1=O (centres undefined) | inconclusive: 42.1% |
| COc1ccc(C#Cc2ccc3c(c2)O[C@H](CN(C)C(C)=O)[C@H](C)CN([C@@H](C)CO)S3(=O)=O)cc1 | inconclusive: 40.8% |
| CS(=O)(=O)Nc1ccccc1C(=O)Nc1ccccc1C(=O)N1CCCC1 | inactive: -9.46% |
| O=C(C[C@@H]1C=C[C@H](NC(=O)Nc2ccc3c(c2)OCO3)[C@H](CO)O1)NCc1ccc2c(c1)OCO2 | inactive: 5.11% |
| CC(C)c1ccc(CC(=O)N2CCC2(C)C(=O)Nc2ccccc2)cc1 (centres undefined) | inconclusive: 20.8% |
| O=C(C[C@H]1CC[C@@H]2[C@H](COC[C@@H](O)CN2Cc2nccs2)O1)NCc1ccccc1 | inactive: -1.61% |
| C[C@@H]1CN([C@@H](C)CO)C(=O)c2cc(NS(=O)(=O)c3ccc(F)cc3)ccc2O[C@@H](C)CCCCO[C@@H]1CN(C)Cc1ccc(C(=O)O)cc1 | inconclusive: 74.5% |
| COc1ccccc1CN1C[C@@H](C)[C@@H](OC)CN(C)C(=O)c2cc(NC(C)=O)ccc2OC[C@@H]1C | inconclusive: 70.3% |
| O=C(O)COCC(=O)N1CCN(c2cc(C(F)(F)F)nc3ccccc23)CC1 | inconclusive: 29.3% |
| COc1ccccc1-c1cn(CC[C@H]2CC[C@H](NC(=O)C3CCC3)[C@H](CO)O2)nn1 | active: 34.8% |
| C[C@H](CO)N1C[C@H](C)[C@H](CN(C)S(=O)(=O)c2ccccc2)OCCCC[C@H](C)Oc2ccc(NC(=O)C3CCCCC3)cc2C1=O | inconclusive: 88.6% |
| Cn1c(CC(=O)Nc2ccccc2F)nnc1SCC(=O)NC1=NCCS1 | inconclusive: 25.7% |
| COc1ccc(N(C)S(=O)(=O)c2cccc(C(=O)OCC(=O)c3c(N)n(C)c(=O)n(C)c3=O)c2)cc1 | inconclusive: 27.1% |
| O=C(Nc1ccc(F)c(Cl)c1)Nc1nnc([C@H]2C[C@H](O)[C@@H](CO)O2)s1 | inconclusive: 34.7% |
| C[C@H]1CN([C@@H](C)CO)C(=O)Cc2cc(NC(=O)C3CCCCC3)ccc2O[C@@H]1CN(C)Cc1ccc(-c2ccccc2)cc1 | inconclusive: 33.4% |
| COc1ccc(C(=O)C2CCCN(C(=O)Cc3c(C)noc3C)C2)cc1OC (centres undefined) | inactive: 9.7% |
| COc1ccc(CCC(=O)NNC(=O)c2ccc(F)cc2)cc1 | inactive: 3.78% |
| Cn1cc(-c2cnc3c(NC=O)cc(-c4cccc(C(F)(F)F)c4)cn23)cn1 | active: 27% |

| SMILES | CPE inhibition |
| --- | --- |
| CN1CCN(C(=O)C[C@H]2CC[C@H]3[C@H](COc4ccc(NC(=O)C5CCCC5)cc4C(=O)N3C)O2)CC1 | inactive: 7.63% |
| CO[C@@H]1CN(C)C(=O)c2cc(NC(=O)NC(C)C)ccc2OC[C@H](C)N(Cc2ccccn2)C[C@@H]1C | active: 73.5% |
| CC(=O)Nc1ccc(S(=O)(=O)Nc2ccccc2C(=O)NCc2cccnc2)cc1 | inconclusive: 30.2% |
| CCCCCN1C(C)=CC(=C(C#N)C#N)C=C1C | inconclusive: 20.4% |
| C[C@@H]1CCCCO[C@@H](CN(C)Cc2ccc(C(F)(F)F)cc2)[C@@H](C)CN([C@H](C)CO)C(=O)c2cc(NS(=O)(=O)c3cn(C)cn3)ccc2O1 | inactive: -4.63% |
| CC(C)c1ccc(N(C(=O)c2snc(C(N)=O)c2N)C(C(=O)NCC2CCCO2)c2ccc(N(C)C)cc2)cc1 (centres undefined) | active: 31.8% |
| C[C@@H]1CCCCO[C@H](CN(C)C(=O)C2CCCCC2)[C@H](C)CN([C@@H](C)CO)C(=O)c2cc(N(C)C)ccc2O1 | inconclusive: 22.9% |
| O=C(c1ccc(NS(=O)(=O)c2ccc(F)cc2)cc1)N1CCOCC1 | inconclusive: 43% |
| O=C(NC[C@H]1N[C@H](CO)[C@H]1c1ccccc1)c1ccccc1F | active: 22.9% |
| CCS(=O)(=O)N1CCC(NC(=O)C(Cc2ccc(OC)c(OC)c2)NC(C)=O)CC1 (centres undefined) | inconclusive: 21.1% |
| COc1ccc(CCNC(=O)CCCn2c(=O)c3cccn3c3cccnc32)c(OC)c1 | inactive: -2.05% |
| C[C@@H]1CN([C@H](C)CO)C(=O)Cc2cc(NC(=O)Nc3ccc4c(c3)OCO4)ccc2O[C@@H]1CN(C)C(=O)Nc1ccccc1 | inconclusive: 25.1% |
| Cc1ccc(N=C2c3ccccc3C(=O)C2[N+](=O)[O-])cc1C (centres undefined) | inconclusive: 34.7% |
| COc1cc2c(cc1OC)CN(C(=O)c1ccco1)CC2 | inconclusive: 56.2% |
| Cc1ccc(S(=O)(=O)N2CC=C(N)N2)cc1 | inconclusive: 20.4% |
| C[C@@H]1CN([C@H](C)CO)C(=O)c2cccc(NC(=O)Nc3ccc4c(c3)OCO4)c2O[C@@H]1CN(C)C(=O)Nc1ccccc1 | inactive: 11.4% |
| OC[C@H]1[C@@H](c2ccc(C#Cc3ccccc3F)cc2)[C@H]2CN(CC3CCOCC3)CCCCN21 | inactive: -16.8% |
| CC1(C(=O)Nc2ccc3ccccc3c2)CCC(=O)N1CCCn1ccnc1 (centres undefined) | inconclusive: 32.2% |
| CC#CCN1C(=O)N[C@@H](c2ccccc2)C(C(=O)OC)=C1C | active: 32.6% |
| C/C=C\C=C\C(=O)N1CC2(CC(c3cccc(NC(=O)CC)c3)=NO2)C[C@H]1C(N)=O (some centres undefined) | inconclusive: 34.6% |
| CCOc1ccc(N(C(C)C(=O)N2CCCCCC2)S(C)(=O)=O)cc1 (centres undefined) | inconclusive: 20.3% |
| CCS(=O)(=O)Nc1ccc2c(c1)C(=O)N(C)C[C@H](OC)[C@H](C)CN[C@H](C)CO2 | active: 21.2% |
| COc1ccc2[nH]c3c(c2c1)CCN1C(=O)C(CC(=O)NCc2ccc(OC)c(OC)c2)C[C@H](C(=O)N(C(C)C)C(C)C)[C@@]31C (some centres undefined) | inactive: 5.31% |
